Holding throughout (type): cell-based
The target of test [1] is T1, RNA polymerase II (Mus musculus) (UniProt P08775+Q8CFI7+P97760+A0A3Q4L2S8+Q80UW8+P61219+P62488+Q923G2+P60898+O08740+Q63871+P62876). Nature of the test: Inhibition of RNA polymerase II in mouse B16-F1 migrating cells assessed as fold change in Mboat2-RNA stability at 0.1 mM measured by ChIP-seq analysis relative to control cells.
The target of test [2] is T1, RNA polymerase II (Mus musculus). The test is described as follows: Inhibition of RNA polymerase II in mouse B16-F1 migrating cells assessed as fold change in Depdc1a-RNA stability at 0.1 mM measured by ChIP-seq analysis relative to control cells.
The target is the same in test [3]. Nature of the test: Inhibition of RNA polymerase II in mouse B16-F1 migrating cells assessed as fold change in Emc10-RNA stability at 0.1 mM measured by ChIP-seq analysis relative to control cells.
The target is the same in test [4]. Nature of the test: Inhibition of RNA polymerase II in mouse B16-F1 migrating cells assessed as fold change in Adi1-RNA stability at 0.1 mM measured by ChIP-seq analysis relative to control cells.
For test [5] the target is unchanged. Nature of the test: Inhibition of RNA polymerase II in mouse B16-F1 migrating cells assessed as fold change in Atp6v0c-RNA stability at 0.1 mM measured by ChIP-seq analysis relative to control cells.
The target is the same in test [6]. The test is described as follows: Inhibition of RNA polymerase II in mouse B16-F1 migrating cells assessed as fold change in Sesn2-RNA stability at 0.1 mM measured by ChIP-seq analysis relative to control cells.
Test [7] has the same target. Nature of the test: Inhibition of RNA polymerase II in mouse B16-F1 migrating cells assessed as fold change in Lactb2-RNA stability at 0.1 mM measured by ChIP-seq analysis relative to control cells.
The target is the same in test [8]. Nature of the test: Inhibition of RNA polymerase II in mouse B16-F1 migrating cells assessed as fold change in Nudcd2-RNA stability at 0.1 mM measured by ChIP-seq analysis relative to control cells.
The target is the same in test [9]. The test is described as follows: Inhibition of RNA polymerase II in mouse B16-F1 migrating cells assessed as fold change in Rp2-RNA stability at 0.1 mM measured by ChIP-seq analysis relative to control cells.
The target is the same in test [10]. Nature of the test: Inhibition of RNA polymerase II in mouse B16-F1 migrating cells assessed as fold change in Wac-RNA stability at 0.1 mM measured by ChIP-seq analysis relative to control cells.
For test [11] the target is unchanged. Nature of the test: Inhibition of RNA polymerase II in mouse B16-F1 migrating cells assessed as fold change in Ppp1r12a-RNA stability at 0.1 mM measured by ChIP-seq analysis relative to control cells.
The target is the same in test [12]. The test is described as follows: Inhibition of RNA polymerase II in mouse B16-F1 migrating cells assessed as fold change in Synj2bp-RNA stability at 0.1 mM measured by ChIP-seq analysis relative to control cells.
Test [13] shares this target. The test is described as follows: Inhibition of RNA polymerase II in mouse B16-F1 migrating cells assessed as fold change in Nexn-RNA stability at 0.1 mM measured by ChIP-seq analysis relative to control cells.
The target is the same in test [14]. Nature of the test: Inhibition of RNA polymerase II in mouse B16-F1 migrating cells assessed as fold change in Cdc42ep5-RNA stability at 0.1 mM measured by ChIP-seq analysis relative to control cells.
Test [15] has the same target. Nature of the test: Inhibition of RNA polymerase II in mouse B16-F1 migrating cells assessed as fold change in Zfp580-RNA stability at 0.1 mM measured by ChIP-seq analysis relative to control cells.
Test [16] has as its target Histone-lysine N-methyltransferase EZH2 (Mus musculus) (UniProt Q61188). Nature of the test: Inhibition of EZH2 in mouse B16-F1 migrating cells assessed as fold change in H3K27me3-buffered regulated Rrnad1-mRNA expression at 3 uM measured by ChIP-seq analysis relative to control cells.
The target is the same in test [17]. The test is described as follows: Inhibition of EZH2 in mouse B16-F1 migrating cells assessed as fold change in H3K27me3-buffered regulated Zeb2-mRNA expression at 3 uM measured by ChIP-seq analysis relative to control cells.
For test [18] the target is unchanged. Nature of the test: Inhibition of EZH2 in mouse B16-F1 migrating cells assessed as fold change in H3K27me3-buffered regulated Mt1-mRNA expression at 3 uM measured by ChIP-seq analysis relative to control cells.
For test [19] the target is unchanged. Nature of the test: Inhibition of EZH2 in mouse B16-F1 migrating cells assessed as fold change in H3K27me3-independent regulated Lgals3-mRNA expression at 3 uM measured by ChIP-seq analysis relative to control cells.
The target is the same in test [20]. Nature of the test: Inhibition of EZH2 in mouse B16-F1 migrating cells assessed as fold change in H3K27me3-buffered regulated Glcci1-mRNA expression at 3 uM measured by ChIP-seq analysis relative to control cells.
The target is the same in test [21]. Nature of the test: Inhibition of EZH2 in mouse B16-F1 migrating cells assessed as fold change in H3K27me3-buffered regulated Gtf2h1-mRNA expression at 3 uM measured by ChIP-seq analysis relative to control cells.
For test [22] the target is unchanged. Nature of the test: Inhibition of EZH2 in mouse B16-F1 migrating cells assessed as fold change in H3K27me3-buffered regulated Slc4a3-mRNA expression at 3 uM measured by ChIP-seq analysis relative to control cells.
Test [23] shares this target. The test is described as follows: Inhibition of EZH2 in mouse B16-F1 migrating cells assessed as fold change in H3K27me3-buffered regulated Trappc6a-mRNA expression at 3 uM measured by ChIP-seq analysis relative to control cells.
Test [24] shares this target. The test is described as follows: Inhibition of EZH2 in mouse B16-F1 migrating cells assessed as fold change in H3K27me3-buffered regulated Neil3-mRNA expression at 3 uM measured by ChIP-seq analysis relative to control cells.
Test [25] has the same target. Nature of the test: Inhibition of EZH2 in mouse B16-F1 migrating cells assessed as fold change in H3K27me3-buffered regulated Krit1-mRNA expression at 3 uM measured by ChIP-seq analysis relative to control cells.
The target is the same in test [26]. The test is described as follows: Inhibition of EZH2 in mouse B16-F1 migrating cells assessed as fold change in H3K27me3-buffered regulated Mis18a-mRNA expression at 3 uM measured by ChIP-seq analysis relative to control cells.
For test [27] the target is unchanged. The test is described as follows: Inhibition of EZH2 in mouse B16-F1 migrating cells assessed as fold change in H3K27me3-buffered regulated Ston1-mRNA expression at 3 uM measured by ChIP-seq analysis relative to control cells.
The target is the same in test [28]. The test is described as follows: Inhibition of EZH2 in mouse B16-F1 migrating cells assessed as fold change in H3K27me3-buffered regulated Wfdc1-mRNA expression at 3 uM measured by ChIP-seq analysis relative to control cells.
Test [29] has the same target. Nature of the test: Inhibition of EZH2 in mouse B16-F1 migrating cells assessed as fold change in H3K27me3-buffered regulated Dennd2a-mRNA expression at 3 uM measured by ChIP-seq analysis relative to control cells.
The target is the same in test [30]. Nature of the test: Inhibition of EZH2 in mouse B16-F1 migrating cells assessed as fold change in H3K27me3-buffered regulated Erbb3-mRNA expression at 3 uM measured by ChIP-seq analysis relative to control cells.

Sequences of proteins named here, by UniProt entry; tags and fusion partners are left off.
UniProt Q61188, whole entry: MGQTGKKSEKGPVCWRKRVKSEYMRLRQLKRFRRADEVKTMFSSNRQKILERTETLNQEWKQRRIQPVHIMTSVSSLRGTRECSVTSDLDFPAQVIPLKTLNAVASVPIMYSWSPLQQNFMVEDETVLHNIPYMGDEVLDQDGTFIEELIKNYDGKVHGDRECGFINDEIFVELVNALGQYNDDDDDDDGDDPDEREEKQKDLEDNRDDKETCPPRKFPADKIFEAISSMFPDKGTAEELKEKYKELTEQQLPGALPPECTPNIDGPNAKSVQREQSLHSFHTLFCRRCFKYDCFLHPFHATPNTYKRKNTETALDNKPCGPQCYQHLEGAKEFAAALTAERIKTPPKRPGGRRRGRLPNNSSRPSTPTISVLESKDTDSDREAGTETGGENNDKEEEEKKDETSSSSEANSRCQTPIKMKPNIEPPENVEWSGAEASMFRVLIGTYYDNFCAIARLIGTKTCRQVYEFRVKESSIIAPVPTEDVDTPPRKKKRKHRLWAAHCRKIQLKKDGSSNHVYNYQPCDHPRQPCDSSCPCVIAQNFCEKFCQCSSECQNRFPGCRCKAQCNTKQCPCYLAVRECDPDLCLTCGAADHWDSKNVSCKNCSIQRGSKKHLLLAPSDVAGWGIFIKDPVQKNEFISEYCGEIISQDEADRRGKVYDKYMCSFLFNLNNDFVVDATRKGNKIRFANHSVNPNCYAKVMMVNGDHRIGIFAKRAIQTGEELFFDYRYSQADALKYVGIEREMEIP

Further values from the same series stand in other lists.

`OC[C@H]1O[C@@H](n2cnc3cc(Cl)c(Cl)cc32)[C@H](O)[C@@H]1O`: the log2FC was 0.61 in test [1]; -1.2 in [2]; 0.4 in test [3]; 0.45 in [4]; 0.44 in test [5]; -0.66 in test [6]. The log2FC in test [7] is -0.53; in test [8], -0.42; in test [9], -0.96; in test [10], -0.48; in test [11], -0.6; in [12] it was -0.62. Moreover, the log2FC in test [13] is -0.87; in [14] it was 0.65; in test [15] it was 0.66.

For the molecule `CCCc1cc(C)[nH]c(=O)c1CNC(=O)c1cc(-c2ccnc(N3CCN(C)CC3)c2)cc2c1cnn2C(C)C`, the log2FC in test [16] was -0.48; in test [17] it was -0.43; in [18], 0.43; in test [19] it was 0.78; in test [20] it was -0.79; in [21], -0.38. Further, the log2FC in test [22] was -0.45; in [23], 0.45; in test [24], -0.43; in test [25], -0.43; in [26] it was -0.51; in test [27] it was -0.45. In addition, the log2FC in test [28] is 0.58; in test [29] it was 0.38; in [30] it was -0.44.
